Test results reported in PMC12370185.
The list shows a part of the results. At the low end of the ranking the order means little.

Tested on: OCT4 + histone octamer
Assay: Pioneer-seq (competitive nucleosome EMSA with sequencing)
Settings: 10 mM Tris-Cl pH 7.5, 50 mM NaCl, 1 mM DTT, 0.25 mg/ml BSA, 2 mM MgCl2, 0.025% Nonidet P-40, 5% glycerol; 28 nM nucleosome library; 10 min on ice then 30 min …; high values mean tight binding; double strand, one strand shown

Sequence	binding signal (log2 relative supershift)
GATGGACCCTATACGCGGCCTACAATAATGATGTACAACATCCATCCTCACACTCAGGCAATAAGCTTTGTTTCTCATGCTCATGGGCAAGTGGTTCAGCTGAGTGGCTCTGCATCAGGCTGCAGTTGTTCAGTTGCCTGTAGTAGTTTGCAAGGGACTGAATGTGTCACCCCTCCCCCATTCATATGTTGAAAGCCTAACCTTCAATGTTGCCAGTCGGATAGTGTTCC	-0.5
GATGGACCCTATACGCGGCTCCTCAAACCAGTGGCTTTGTTGGGTAGCACAAGGAGTTGGTCAAGAATATCAGCTGCCACACAGTCTTCAGTCCTGCTCATGAGCAGACAGGCGTACCACTTTTACTCAGATACCTAGCATTTCAATGCTCATTTAAATAATTCAGACTATACACATGTCTTAGCAGATTTTCCTCTTCCAGCCAACAATTGCCAGTCGGATAGTGTTCC	-0.146
GATGGACCCTATACGCGGCCAAACTGATTTTGGGAAGCAGTCTAGAAAGATGCTTGAAAAATGTACTGATGTGTAATGCCAGCAGCAGGCCATTGTCATGGTATGGAATAATGGTGACTGAAAGTCATTCTCCCTTGCTTGGGATGATCTGTCTTAAGCATGAGCAGCTTGAGGCTGAATTGTAGACAATAAAACGTGAGTCCAATGACATGCCAGTCGGATAGTGTTCC	-0.436
GATGGACCCTATACGCGGCCTCTGTCAGCCAGGCTGCCCTCCCTGCATTAGCCCTGTATCCAGGCTTCACTGCACATGGAAGCCCAGCCCCAACCCGCTGCCACTCCAGGTCAGTGGCAGGCCCTGCCCGGGGGACTGGGAGGTGGAGTCTATCAAGAGAGAGCTGGGTTGGGAGATGGATGTGCTGGGGGTGGCCTTGAAGACTTTGAATGCCAGTCGGATAGTGTTCC	-0.768
GATGGACCCTATACGCGGCATGTGATAGTATTGGAATGCTATGATTGTTAATGTTGTGTCAACTTGAATGTGCCACAGGGTGCCCAGATTGAACATTATTTGGGGGTGTGTCTGTGAGGTTGTTCCCGATGAGATTAGCATTTGAATCAGTGGACTCAGAAAAGTTTCCCTCCCCATGTGAGTGGGCATCACCCAATCCATTGAAAGCCTTGCCAGTCGGATAGTGTTCC	-0.136
GATGGACCCTATACGCGGCCTGTTTGGAAATTCATCATGGTAGAATGGAAAACACACATGCTCTGTAGTCAAGCACATCTAAGTGCCTCTTCCATCACTTACTGTCTGCATGACCATAAATCAGTCTGTCTGAGCCTCAGTTTTCTCATCCACCAAATGAAAGTAACACCTGACTCATGGAGTTTTCCTGCTGATGATATAATGAGATGATGCCAGTCGGATAGTGTTCC	-0.371
GATGGACCCTATACGCGGCCAGGTCTCACTGTGCAAGGCAGGGATGCCCTGGGCTGTGGGAGCTGCCAGTGGGTGGGGCCTGCACACGTGGTCTGGGAGCAGTAACCCTGGAGACATCCTCTAGGCACGTGTGAGGCCTGGGAGACTCGGCAAGGAGGAGGGCTGAGAGCAGTGAAGTGTAGGGACAATGTATTAACAACAGGCTCAAACTGCCAGTCGGATAGTGTTCC	-0.685
GATGGACCCTATACGCGGCAACCAGGGGGAGGGCATGGCACTTCCCAAGGCTATGCACCTGAATATGGGGTGTGTGTGTATGTGTGTGTGTGTGTGTGCACAGCTCAAGGCAATTCCACCCACAATTCAAGGAATATGGAGGCTGACAGACAAAGCTTGGATTTCAGATGTAAATAAAACTAGAGTTAATAAAAATGTTTACTGCAGTGCTGCCAGTCGGATAGTGTTCC	-0.216
GATGGACCCTATACGCGGCATTAGGTTTCAATGAGACCATAAGGGTGAGGCCTGCTATGGTCTGAATGTTTGTGTTCCCCCCAAATTCATATGCTGAAACCCAGTCACTAGTATGGTGACAGTAGGAGGTGGGGTCTTTGGGAGATGATTAGGTCATGAGAGCAGAGAGCTCATGAATAGGACTGGTGCCCTTATAAAAGAGGCCTCAGATGCCAGTCGGATAGTGTTCC	-0.555
GATGGACCCTATACGCGGCGTGTCCCTCTAGGGTGTGGCATAGTCTAACTGTCCTGCCAGAAGGGTCCAGGGTGTGGCTGGGTCTGAGCTAGTGGAGAACTGTGTGCATGCGATCAGGTGTGGGGACACAGTGCGTGTGTCCATGCATGCTCTTGTCAGAGAGAGGGTGATGGAGAGAGGAAGGAAGATCGAGAAAAACACAAAGACGTGTGCCAGTCGGATAGTGTTCC	-0.697
GATGGACCCTATACGCGGCATTTGGGCATGGGTACTGATCTCATACATCAAACACACAAGTACATACATACAATGCACACACACAAACTCAGGAACACCTCCATGAATGCTGACCACATGCACTTGCATATGCAAGCATCAGGCATGCGCACACCCCCACCACCACATTCATGTGCATATGCAGACATGCACATACATGTGCACCTCCATTGCCAGTCGGATAGTGTTCC	-0.34
GATGGACCCTATACGCGGCGTTTTTGTTGTTGGACTAAGATTGTATGTGACAGTGTTTGAGATTGTGCATGACAGTGTGTGTGATTATGTGAGACTGAGGGAGATGGTGTGACTTAGCACTGTATGTCATCCCGACAGTGAGTGTGACAGTGTGACTGAGAATGGCCTTATATGACCCATTGTGAGAGCAGGGCGGGCTACAATGTGGGGTGCCAGTCGGATAGTGTTCC	-0.69
GATGGACCCTATACGCGGCGCCTGATCTATGTGCCCCACGCTTGGCAATGGGACTGGATTGGAGGCAGAGGATATGCATCTGAAAGTCAAGATACTTGCCAAGAGGAGAGGGAGAGGTGTTGGTGATGCAACCAGAATATCCATTACAGTAAACCAATTGTCAGAGCTACAAACTCTTCGTTTAATAGTCTTCCTATAGTCTCAGTCTTGTGCCAGTCGGATAGTGTTCC	-0.297
GATGGACCCTATACGCGGCGCGGAAACCACCTCGACAGCCTCCAGAAAGGGGCGTGGCTGAAAATGTAGGGGCGTGGCCACGTGGGCATCAGGAAGAAGTAACCTGTTGAATCTATTTCTGCTCCCCACCCTTACTGCTTCCCATAAGGGGGAAGCCGCAGACTAATAAGCCTCTTCCAAAAAAGAGGTAAAGGGAGGTAGACAAGGGGCTGCCAGTCGGATAGTGTTCC	-0.727
GATGGACCCTATACGCGGCCACGCTCATTTGTCTGGAGAAAACACTGAGACCTGGAGCATGTGTGTACATGCTCACCATACAGCCCGCCCCCGATGATTGTCAGGAGAGTCAGCTGATCTGAGAAAGTGACAAGCATTGGTCATTTCAGAGAAACCGGGAGTTGGGCTTTTTAAAAGAGGCATAAAGAAACTGGGAAAATGAGACTGAGTTGCCAGTCGGATAGTGTTCC	-0.622
GATGGACCCTATACGCGGCTAAATAAAACTGAGGTTATATAGTCATGCATTTAATAATAGTGATAGATGCAGGAGGCATGCAGATGCAGATAAGGAAACCTGCACAGGGTCTTGCCCGGGCGTGCCTGCAAGGGACTGGGGCCCACATGTGCACTAGGAGAAGGGGGTGGAGCCACCAAGAATTCATGCCTTATGCAGGGGAGGAGACTGTGCCAGTCGGATAGTGTTCC	-0.0295
GATGGACCCTATACGCGGCCTAGAGCTGGTGGAGAGTCGGGAGAGGCAGCTGATCGGGCAGATAAGAGCAGATCATGTTGAGTCTTGTGCAGTTTGCGCAGAAGTTTGGATGTAACTCTGTAAGCATTAGAGAAATGTCATCTGGCAGCATTCATAGAAGCTATCACAAGAGGACCAGACAGAAGTCTGGTTTGAAACCAAGGCAACAACTGCCAGTCGGATAGTGTTCC	-0.21
GATGGACCCTATACGCGGCATAAGAAAGACAGGACAGCCCTCCAAACCAGGACGTCATGGAGAGGTCAGCCCACCCAAAGAAGATGCAGCACATGCAGGGTGTGGAGAGGGAAGTTCACGGGTGACGGGAGACACTGCCCTACGCCGCTAAATCCCTGCAGCCTCCTCCCCCTCATCCCTGTAAAAGTGAGTCAGAAGAGCTCACTTGTCTGCCAGTCGGATAGTGTTCC	-0.471
GATGGACCCTATACGCGGCATGTCTCTTTTTTCAAAAAGCAGCTGACCACCCATTTCCTGGCCCCACCCCTCCCACATTCTTCCAGCACATGCTCCTGTCTCCCTTGTAGTGCTGAGCACTGCTGTGACTGTACAGGGGTTGGGCCCTGCTTTTGATTAGTGCCTGTTTCTTATTGTGAGTTCCAAGAGGACATGTTCCTTTTACTCTGTTGCCAGTCGGATAGTGTTCC	-0.666
GATGGACCCTATACGCGGCTTCACAGTACTACTCCCTACCTGACTGTCTCAGCATATGAATGCAAACTGCAGAAGGGTAGAAACTTGCTATTTACTGCAGTAGCCTCTGGCCCTAGGATACTTGCCTAACACTGCATGGATGTAATTGTCAGCCAGTCAATTGCATGGAATTTTGCTGAAAGTACAACTTTTGTCATTGCTTAGGAGAAGTGCCAGTCGGATAGTGTTCC	-0.154
GATGGACCCTATACGCGGCTTTGTGTGGATGTGGTTGGTCAGAAGGCTTTGTGTGCACTGTGACATCTTTATGCTGCAGATGCCAAGATCACAGGGTCCACACAGAGCAGTTCATTTCACACAGTGGGAAATGATGCGTGTGTGTGTGTGGGTGGGTGTGTGTGTGTGTTTTAAAAAACCTAAACAGAGCAACACTGTTCTGTGCACTCATGCCAGTCGGATAGTGTTCC	-0.145
GATGGACCCTATACGCGGCAGCCTGTCTGCAATTCTGCATCCACGTGCCTGCATGGTAATAACTGGCAGGAGCTGCACATGAGCTGCCTTTTGAGAAAGGGTCACACGCCCTTGAGTTCACTAGGTCCCCACCCAGCTGCTGTCTTACTCATCAACCTTTCCAACCAGGCCCTTGTTTGTTACCCTTGCGGCGGGGGAGGGGGGCGAAAATGCCAGTCGGATAGTGTTCC	-0.609
GATGGACCCTATACGCGGCAGGGGGACAATGTCAAAGGCACATGGAAGCTCCCCTTTTATTATTAGCTGGGTGTGTGCCCAGCTCCTCCCAAACAGAACAGGGCTGGGACTCGAGGTGGAGGCTGAGGCTTAACCCCCTCCCTGGTGCCATTGTCCTGCAGACAGCCAGAGGGAGGAGGCACCAGCCCAAGGGAGGAGGTATTAGCCCTCTGCCAGTCGGATAGTGTTCC	-0.515
GATGGACCCTATACGCGGCACAAGAAAGTAATCCACGGAAGGAACAAGAAGTGTCCTAAACAGTAGCAAACCTTACACATCAGGACAATCACACAGGCTCTGGTGTCAGATTCCAGCTTCAACCTCATCGGTGTGACCTCAAGCAACTCATGCGCCCTCTTTTTCTCATGTGAAGTGAGAATATCATTGGCCACACCAAGGGTAGCCTAGTGCCAGTCGGATAGTGTTCC	-0.549

Shown in CSV form: part of the list above.
Sequence,binding signal (log2 relative supershift)
GATGGACCCTATACGCGGCTCCTCAAACCAGTGGCTTTGTTGGGTAGCACAAGGAGTTGGTCAAGAATATCAGCTGCCACACAGTCTTCAGTCCTGCTCATGAGCAGACAGGCGTACCACTTTTACTCAGATACCTAGCATTTCAATGCTCATTTAAATAATTCAGACTATACACATGTCTTAGCAGATTTTCCTCTTCCAGCCAACAATTGCCAGTCGGATAGTGTTCC,-0.146
GATGGACCCTATACGCGGCCAAACTGATTTTGGGAAGCAGTCTAGAAAGATGCTTGAAAAATGTACTGATGTGTAATGCCAGCAGCAGGCCATTGTCATGGTATGGAATAATGGTGACTGAAAGTCATTCTCCCTTGCTTGGGATGATCTGTCTTAAGCATGAGCAGCTTGAGGCTGAATTGTAGACAATAAAACGTGAGTCCAATGACATGCCAGTCGGATAGTGTTCC,-0.436
